Results published in US20040234530A1.
No constants are given. Whether binding was seen depends on the method and setting. Some results given as binding are weak or reduced against the parent protein; the word gives no strength.

The chains behind the UniProt entries cited, without tags or fusion partners. Residues count along the entry.
UniProt P05155, residues 23-500: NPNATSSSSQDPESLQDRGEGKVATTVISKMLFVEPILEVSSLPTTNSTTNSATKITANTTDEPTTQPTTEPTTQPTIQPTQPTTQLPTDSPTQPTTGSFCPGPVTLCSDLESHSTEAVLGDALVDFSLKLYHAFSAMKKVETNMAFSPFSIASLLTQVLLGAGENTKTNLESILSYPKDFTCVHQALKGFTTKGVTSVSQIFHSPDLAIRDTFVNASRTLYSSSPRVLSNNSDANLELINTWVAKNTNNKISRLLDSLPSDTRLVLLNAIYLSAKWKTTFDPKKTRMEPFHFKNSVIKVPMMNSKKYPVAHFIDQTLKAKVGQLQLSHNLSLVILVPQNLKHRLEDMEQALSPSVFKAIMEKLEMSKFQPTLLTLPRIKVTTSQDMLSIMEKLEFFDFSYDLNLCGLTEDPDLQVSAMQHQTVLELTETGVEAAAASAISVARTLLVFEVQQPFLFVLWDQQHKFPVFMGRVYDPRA

Experiments:
[1] = target: C1-esterase inhibitor (human plasma protease C1 inhibitor), purified or in human serum (human) (UniProt P05155); test: Far Western blot, MALDI-MS of the spot
[2] = target: C1-esterase inhibitor (human plasma protease C1 inhibitor), purified or in human serum (human) (UniProt P05155); test: Far Western blot of 2D-separated human serum fraction, detection with HRP anti-His antibody

“StcE-His (recombinant his-tagged form of StcE, from pWL107 in BL21(DE3), strain WAM2572) (from UniProt O82882 36-898) (enzyme)” was tested, and the binding [1] was “binds” and the binding [2] was “binds”.
